# Laboratory results from publication doi:10.1101/2023.09.11.557182.
# Chains of the proteins cited; added tags and fusions are not shown.
# UniProt P37276: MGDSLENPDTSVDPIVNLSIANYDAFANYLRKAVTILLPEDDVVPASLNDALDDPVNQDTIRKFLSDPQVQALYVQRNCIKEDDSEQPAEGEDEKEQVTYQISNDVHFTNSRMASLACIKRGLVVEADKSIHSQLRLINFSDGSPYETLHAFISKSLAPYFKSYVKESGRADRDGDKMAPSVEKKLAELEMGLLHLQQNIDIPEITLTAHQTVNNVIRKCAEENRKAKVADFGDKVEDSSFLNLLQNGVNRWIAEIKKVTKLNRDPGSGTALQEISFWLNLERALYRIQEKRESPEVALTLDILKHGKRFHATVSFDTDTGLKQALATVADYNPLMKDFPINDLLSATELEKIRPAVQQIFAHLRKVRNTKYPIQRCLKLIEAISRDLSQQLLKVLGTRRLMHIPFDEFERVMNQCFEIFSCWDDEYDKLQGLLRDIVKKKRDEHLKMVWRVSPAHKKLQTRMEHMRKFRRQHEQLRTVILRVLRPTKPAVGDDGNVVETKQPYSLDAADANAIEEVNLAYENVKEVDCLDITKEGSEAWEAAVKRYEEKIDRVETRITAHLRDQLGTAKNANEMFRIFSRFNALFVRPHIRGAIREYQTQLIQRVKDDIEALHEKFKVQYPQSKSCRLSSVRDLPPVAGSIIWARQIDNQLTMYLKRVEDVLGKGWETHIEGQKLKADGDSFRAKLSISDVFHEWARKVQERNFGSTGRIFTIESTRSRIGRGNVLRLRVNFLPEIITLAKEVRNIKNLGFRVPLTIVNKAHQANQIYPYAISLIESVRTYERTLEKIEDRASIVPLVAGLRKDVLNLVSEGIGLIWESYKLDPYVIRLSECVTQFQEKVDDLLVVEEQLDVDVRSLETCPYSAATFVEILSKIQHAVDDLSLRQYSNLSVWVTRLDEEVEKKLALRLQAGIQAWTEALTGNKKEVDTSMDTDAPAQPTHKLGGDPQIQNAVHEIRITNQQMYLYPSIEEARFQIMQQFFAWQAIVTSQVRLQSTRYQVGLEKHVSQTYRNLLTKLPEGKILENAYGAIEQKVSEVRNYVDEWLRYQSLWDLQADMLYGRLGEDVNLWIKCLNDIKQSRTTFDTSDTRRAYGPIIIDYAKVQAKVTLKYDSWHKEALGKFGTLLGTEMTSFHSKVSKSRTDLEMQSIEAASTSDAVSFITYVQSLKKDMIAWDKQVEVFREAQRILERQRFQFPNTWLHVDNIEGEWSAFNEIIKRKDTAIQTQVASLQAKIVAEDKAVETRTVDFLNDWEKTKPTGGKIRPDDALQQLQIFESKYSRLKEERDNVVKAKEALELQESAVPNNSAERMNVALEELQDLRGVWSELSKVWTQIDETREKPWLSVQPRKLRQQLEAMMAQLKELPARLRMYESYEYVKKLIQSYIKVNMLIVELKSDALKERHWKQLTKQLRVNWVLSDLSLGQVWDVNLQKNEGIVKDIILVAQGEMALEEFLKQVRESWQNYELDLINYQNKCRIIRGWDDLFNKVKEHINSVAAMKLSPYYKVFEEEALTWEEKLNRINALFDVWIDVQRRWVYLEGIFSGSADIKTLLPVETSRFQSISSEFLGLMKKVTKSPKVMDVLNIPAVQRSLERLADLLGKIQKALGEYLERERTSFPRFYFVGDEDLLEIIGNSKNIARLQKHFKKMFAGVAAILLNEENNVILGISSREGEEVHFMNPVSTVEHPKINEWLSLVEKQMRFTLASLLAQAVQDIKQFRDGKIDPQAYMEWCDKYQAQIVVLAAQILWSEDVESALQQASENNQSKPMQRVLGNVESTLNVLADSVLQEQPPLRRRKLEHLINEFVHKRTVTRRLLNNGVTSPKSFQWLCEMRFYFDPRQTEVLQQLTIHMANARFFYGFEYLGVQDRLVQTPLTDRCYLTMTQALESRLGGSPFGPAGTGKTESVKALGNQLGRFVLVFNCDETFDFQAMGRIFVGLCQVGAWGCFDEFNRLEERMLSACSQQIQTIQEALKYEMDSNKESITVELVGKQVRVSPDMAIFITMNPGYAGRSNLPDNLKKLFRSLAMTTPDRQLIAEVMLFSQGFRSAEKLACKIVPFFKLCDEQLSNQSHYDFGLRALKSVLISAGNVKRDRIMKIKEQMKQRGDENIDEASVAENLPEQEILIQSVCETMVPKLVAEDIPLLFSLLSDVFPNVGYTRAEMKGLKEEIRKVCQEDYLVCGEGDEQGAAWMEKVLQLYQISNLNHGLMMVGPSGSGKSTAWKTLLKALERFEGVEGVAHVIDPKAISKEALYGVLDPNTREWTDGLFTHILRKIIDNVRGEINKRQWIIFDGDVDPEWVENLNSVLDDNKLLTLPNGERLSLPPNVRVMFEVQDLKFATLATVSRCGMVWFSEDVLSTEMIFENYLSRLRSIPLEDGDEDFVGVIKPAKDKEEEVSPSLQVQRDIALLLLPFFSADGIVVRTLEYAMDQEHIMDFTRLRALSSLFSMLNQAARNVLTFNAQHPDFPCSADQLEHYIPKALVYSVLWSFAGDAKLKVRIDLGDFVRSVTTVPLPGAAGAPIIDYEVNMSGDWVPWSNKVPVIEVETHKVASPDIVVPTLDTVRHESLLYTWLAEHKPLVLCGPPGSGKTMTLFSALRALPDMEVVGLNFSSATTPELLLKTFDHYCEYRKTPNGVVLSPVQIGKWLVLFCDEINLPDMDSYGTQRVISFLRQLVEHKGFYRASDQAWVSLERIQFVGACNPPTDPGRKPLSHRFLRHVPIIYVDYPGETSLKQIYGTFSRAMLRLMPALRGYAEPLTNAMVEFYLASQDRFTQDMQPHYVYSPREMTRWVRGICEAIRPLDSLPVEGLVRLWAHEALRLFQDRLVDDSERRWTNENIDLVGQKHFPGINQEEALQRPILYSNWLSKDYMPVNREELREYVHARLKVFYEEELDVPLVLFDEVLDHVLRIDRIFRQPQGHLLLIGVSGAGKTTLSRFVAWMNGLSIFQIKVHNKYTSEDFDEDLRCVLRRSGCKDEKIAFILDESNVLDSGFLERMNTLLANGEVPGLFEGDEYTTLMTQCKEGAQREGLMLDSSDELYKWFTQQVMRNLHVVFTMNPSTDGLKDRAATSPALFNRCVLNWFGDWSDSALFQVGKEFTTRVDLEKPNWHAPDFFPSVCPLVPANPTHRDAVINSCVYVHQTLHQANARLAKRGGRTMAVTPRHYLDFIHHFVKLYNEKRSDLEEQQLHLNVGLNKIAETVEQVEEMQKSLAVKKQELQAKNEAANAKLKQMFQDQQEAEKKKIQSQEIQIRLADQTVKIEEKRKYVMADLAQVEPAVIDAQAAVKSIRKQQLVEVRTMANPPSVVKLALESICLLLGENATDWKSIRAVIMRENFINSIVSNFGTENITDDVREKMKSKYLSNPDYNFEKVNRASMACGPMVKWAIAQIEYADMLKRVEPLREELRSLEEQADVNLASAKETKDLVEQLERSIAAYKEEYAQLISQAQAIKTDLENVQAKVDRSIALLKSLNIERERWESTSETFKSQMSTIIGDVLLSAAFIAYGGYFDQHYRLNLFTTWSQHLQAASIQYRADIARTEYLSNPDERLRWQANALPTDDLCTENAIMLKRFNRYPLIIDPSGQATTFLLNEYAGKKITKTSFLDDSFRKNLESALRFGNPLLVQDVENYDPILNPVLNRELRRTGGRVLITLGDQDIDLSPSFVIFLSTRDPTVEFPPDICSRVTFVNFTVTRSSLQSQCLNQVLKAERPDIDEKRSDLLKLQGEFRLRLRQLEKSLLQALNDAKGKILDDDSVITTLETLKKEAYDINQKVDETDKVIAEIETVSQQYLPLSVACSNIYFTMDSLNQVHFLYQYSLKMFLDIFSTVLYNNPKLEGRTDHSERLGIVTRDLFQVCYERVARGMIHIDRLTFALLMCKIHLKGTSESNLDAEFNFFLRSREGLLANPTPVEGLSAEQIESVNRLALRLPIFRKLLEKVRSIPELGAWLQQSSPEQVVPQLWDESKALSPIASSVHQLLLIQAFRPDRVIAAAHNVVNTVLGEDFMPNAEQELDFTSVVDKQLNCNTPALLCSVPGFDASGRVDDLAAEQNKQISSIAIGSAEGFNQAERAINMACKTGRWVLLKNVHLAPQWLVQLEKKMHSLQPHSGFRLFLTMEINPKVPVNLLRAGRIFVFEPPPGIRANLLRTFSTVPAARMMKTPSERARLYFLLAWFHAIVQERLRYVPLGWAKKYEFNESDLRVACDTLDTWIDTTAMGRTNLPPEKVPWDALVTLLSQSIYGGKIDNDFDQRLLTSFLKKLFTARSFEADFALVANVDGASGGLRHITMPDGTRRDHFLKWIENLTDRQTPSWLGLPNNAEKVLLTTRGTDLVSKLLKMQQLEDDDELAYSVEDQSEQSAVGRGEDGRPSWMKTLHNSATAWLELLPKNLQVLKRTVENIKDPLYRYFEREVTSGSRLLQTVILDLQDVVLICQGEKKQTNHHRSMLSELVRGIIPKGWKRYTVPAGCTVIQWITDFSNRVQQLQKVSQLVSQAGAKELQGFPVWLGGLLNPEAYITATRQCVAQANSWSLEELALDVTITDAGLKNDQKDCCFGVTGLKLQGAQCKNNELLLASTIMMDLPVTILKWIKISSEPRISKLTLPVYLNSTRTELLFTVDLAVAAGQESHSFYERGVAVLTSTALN
# UniProt Q9NFU0: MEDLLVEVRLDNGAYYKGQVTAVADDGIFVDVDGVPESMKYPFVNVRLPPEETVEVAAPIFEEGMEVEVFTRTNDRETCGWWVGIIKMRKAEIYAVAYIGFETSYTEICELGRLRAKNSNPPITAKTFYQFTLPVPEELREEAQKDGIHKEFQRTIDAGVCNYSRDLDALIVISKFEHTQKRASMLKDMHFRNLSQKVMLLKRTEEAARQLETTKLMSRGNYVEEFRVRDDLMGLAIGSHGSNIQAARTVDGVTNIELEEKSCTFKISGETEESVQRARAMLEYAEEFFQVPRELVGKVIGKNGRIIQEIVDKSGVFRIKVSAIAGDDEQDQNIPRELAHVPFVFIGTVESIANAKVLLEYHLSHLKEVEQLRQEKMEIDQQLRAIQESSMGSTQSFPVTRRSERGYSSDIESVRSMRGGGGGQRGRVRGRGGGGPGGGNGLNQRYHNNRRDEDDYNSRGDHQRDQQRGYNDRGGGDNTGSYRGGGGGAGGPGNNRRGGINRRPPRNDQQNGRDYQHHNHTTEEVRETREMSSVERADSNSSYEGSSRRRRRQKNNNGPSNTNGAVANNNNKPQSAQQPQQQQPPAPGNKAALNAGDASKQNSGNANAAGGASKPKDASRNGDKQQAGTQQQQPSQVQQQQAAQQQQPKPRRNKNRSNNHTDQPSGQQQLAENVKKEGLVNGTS
# UniProt P17210: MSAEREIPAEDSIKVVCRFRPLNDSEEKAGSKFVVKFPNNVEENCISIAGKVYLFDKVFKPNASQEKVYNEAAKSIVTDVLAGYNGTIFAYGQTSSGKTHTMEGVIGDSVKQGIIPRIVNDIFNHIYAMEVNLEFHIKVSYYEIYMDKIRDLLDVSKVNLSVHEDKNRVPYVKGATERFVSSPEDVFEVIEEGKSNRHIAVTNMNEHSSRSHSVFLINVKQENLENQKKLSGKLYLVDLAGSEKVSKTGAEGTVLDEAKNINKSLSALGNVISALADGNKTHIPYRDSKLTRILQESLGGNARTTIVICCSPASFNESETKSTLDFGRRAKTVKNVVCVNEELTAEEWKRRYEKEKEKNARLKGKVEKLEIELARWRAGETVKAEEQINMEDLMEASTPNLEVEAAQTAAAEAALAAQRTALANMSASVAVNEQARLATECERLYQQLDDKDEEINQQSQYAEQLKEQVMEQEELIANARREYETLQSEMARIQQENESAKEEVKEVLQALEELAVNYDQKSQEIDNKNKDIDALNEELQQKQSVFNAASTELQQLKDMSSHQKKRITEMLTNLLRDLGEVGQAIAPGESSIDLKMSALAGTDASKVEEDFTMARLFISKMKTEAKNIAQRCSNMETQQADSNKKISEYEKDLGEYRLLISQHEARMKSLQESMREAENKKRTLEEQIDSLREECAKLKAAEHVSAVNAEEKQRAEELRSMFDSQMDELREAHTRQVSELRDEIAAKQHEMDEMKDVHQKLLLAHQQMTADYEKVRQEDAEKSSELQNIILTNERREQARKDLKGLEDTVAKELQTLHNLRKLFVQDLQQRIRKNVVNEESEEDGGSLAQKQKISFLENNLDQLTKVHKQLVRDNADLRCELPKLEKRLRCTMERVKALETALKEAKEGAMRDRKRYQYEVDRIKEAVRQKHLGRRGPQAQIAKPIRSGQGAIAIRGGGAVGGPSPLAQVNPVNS
# UniProt O18334: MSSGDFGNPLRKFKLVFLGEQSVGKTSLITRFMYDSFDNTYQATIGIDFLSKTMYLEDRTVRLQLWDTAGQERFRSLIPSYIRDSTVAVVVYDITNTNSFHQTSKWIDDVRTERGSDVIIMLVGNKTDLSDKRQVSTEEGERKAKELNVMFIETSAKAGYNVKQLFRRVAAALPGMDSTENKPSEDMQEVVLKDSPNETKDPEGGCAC
# Changes are numbered by the printed parent chain. Read-outs that look alike come from different tables or passages of the source. Results are given in words; binding and its absence hold for the method and conditions named. In cells and extracts the contact can be indirect. Here binding means that the protein was enriched with, or labelled near, the bait; the list need not be complete. For part of these data: No binding means not detected with the bait. For part of these data: Tags and fused reporters may be left off the sequences shown.
# T1: Trbo-Dmn (Dynamitin (Dmn)/p50 tagged with TurboID on its N-terminus) (Drosophila) (UniProt Q7K2D2)
# T1 sequence: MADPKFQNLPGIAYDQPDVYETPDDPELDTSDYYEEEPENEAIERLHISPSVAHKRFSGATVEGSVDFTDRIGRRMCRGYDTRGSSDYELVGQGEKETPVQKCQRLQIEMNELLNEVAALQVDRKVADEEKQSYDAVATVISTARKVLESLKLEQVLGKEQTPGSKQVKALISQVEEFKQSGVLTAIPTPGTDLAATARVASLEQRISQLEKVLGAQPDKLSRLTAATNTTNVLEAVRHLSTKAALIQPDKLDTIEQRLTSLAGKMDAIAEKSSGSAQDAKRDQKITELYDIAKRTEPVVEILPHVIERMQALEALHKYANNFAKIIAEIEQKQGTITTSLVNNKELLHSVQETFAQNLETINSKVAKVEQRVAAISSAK
# T2: Trbo-BicD (wild-type Bicaudal-D tagged with TurboID on its N-terminus) (Drosophila) (UniProt P16568)
# T2 sequence: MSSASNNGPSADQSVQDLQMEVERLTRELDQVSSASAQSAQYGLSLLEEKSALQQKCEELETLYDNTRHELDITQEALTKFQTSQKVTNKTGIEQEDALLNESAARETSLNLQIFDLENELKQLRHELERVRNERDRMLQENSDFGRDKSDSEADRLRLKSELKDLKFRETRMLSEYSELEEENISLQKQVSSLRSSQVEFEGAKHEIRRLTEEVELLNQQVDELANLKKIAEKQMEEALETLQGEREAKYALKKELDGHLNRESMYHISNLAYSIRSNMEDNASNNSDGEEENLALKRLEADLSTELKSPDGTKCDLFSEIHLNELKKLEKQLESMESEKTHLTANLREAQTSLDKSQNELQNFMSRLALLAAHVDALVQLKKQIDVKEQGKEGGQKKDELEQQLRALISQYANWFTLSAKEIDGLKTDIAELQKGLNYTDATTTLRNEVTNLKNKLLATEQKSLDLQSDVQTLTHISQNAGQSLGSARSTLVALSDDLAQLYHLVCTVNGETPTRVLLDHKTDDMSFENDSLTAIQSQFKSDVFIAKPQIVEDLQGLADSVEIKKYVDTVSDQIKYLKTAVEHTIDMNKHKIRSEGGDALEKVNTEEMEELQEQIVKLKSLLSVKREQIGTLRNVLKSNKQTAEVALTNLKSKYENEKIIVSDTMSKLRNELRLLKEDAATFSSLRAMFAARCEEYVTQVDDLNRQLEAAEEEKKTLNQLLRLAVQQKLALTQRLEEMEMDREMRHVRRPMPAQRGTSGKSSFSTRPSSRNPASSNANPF
# T3: Trbo-BicD_R688A (Drosophila) (UniProt P16568)
# T3 sequence: T2 sequence with R688A
# B1: RanGAP (protein, UniProt Q9VIW3 1-596)
# chain: MSTFNFASMAAQLGQEQGISFENKVLSWNTAADVQDVVDALNKQTTVHYLNLDGNTLGVEAAKAIGEGLKRHPEFRKALWKNMFTGRLISEIPEALKHLGAALIVAGAKLTVLDLSDNALGPNGMRGLEELLRSPVCYSLQELLLCNCGLGPEGGSMLSRALIDLHANANKAGFPLQLRVFIGSRNRLEDAGATEMATAFQTLKTFEEIVLEQNSIYIEGVEALAESFKHNPHLRVLNMNDNTLKSEGAEKIAEALPFLPLLREMSFGDCLIKTNGAYHFGEALERGNERLEVIDLGFNEINSDGGLVLVNAMGNKPKLRILNLDGNSFGEEGSEKIISEMSKLPTAAALQPFQHQEEEDLEDEYQADKQDADYEEEEEVHEHANDTTEEADEDSEGDEDDEEDEGDEEYSNVAEETAYVTTNAYTTKLFNDTTNSMASETFAVANKTISQKCTPEKFCLSQKPCSQEDFDSLDMDNKLEALQSIVNQFTGDNHLLLLVFTTLKCAHLSQSSKAALDLAVSLYQATFDYAIKTKQETRVLNYVLMQLRLLPCKEVFHSDYDVKNCRFALREALKQPTFANDNIKNSFKTFLEGAES
# B2: Bicaudal-D (BicD), endogenous (protein, UniProt P16568 1-782)
# chain: T2 sequence
# B3: Me31b (protein, UniProt P23128 1-459)
# chain: MMTEKLNSGHTNLTSKGIINDLQIAGNTSDDMGWKSKLKLPPKDNRFKTTDVTDTRGNEFEEFCLKRELLMGIFEKGWERPSPIQEAAIPIALSGKDVLARAKNGTGKTGAYCIPVLEQIDPTKDYIQALVMVPTRELALQTSQICIELAKHLDIRVMVTTGGTILKDDILRIYQKVQLIIATPGRILDLMDKKVADMSHCRILVLDEADKLLSLDFQGMLDHVILKLPKDPQILLFSATFPLTVKNFMEKHLREPYEINLMEELTLKGVTQYYAFVQERQKVHCLNTLFSKLQINQSIIFCNSTQRVELLAKKITELGYCCYYIHAKMAQAHRNRVFHDFRQGLCRNLVCSDLFTRGIDVQAVNVVINFDFPRMAETYLHRIGRSGRFGHLGIAINLITYEDRFDLHRIEKELGTEIKPIPKVIDPALYVANVGASVGDTCNNSDLNNSANEEGNVSK
# B4: Cup (protein, UniProt Q9VMA3 1-1117)
# chain: MQMAEAEQENGAGALKIATNAGATDRPAHQQLPLPVEDQQDEVLTPAEKGKFEYPPPPPPPTPVQAPLATKATALNASQEHDDDEANSEKWEDPCAPPPPPPLPTSAFLATGLGYLKLPAFKLKDALEKAITKLEANKRTLKASPESSRSIKNKNVVALEMLPRRSNPETIGDGSMLASTSTAVMLQTKKPAVIVEMERRCKIINLLAKQNQILESISGEAIPMHGPSKHLHEDEGLTLQVLSARASTPYTQPSSMLSCTAVSCDLEHDSPRKQVASKEAVPEQQSSQVQQKRPPSTGIHKPGSLRAPKAVRPTTAPVVSSKPVKSYTRSRLMDIRNGMFNALMHRSKESFVMPRIATCDDIELEGRLRRMNIWRTSDGTRFRTRSTTANLNMNNNNNNECMPAFFKNKNKPNLISDESIIQSQPPQPQTEFQDPAIVNQRRIGSGRLNHSKWGYNDEDYHSYHNGKSQHMEEVNSKNSKNMTVLQFFDNGEISSQPQRRPNTPVMGMSINRSENDTLHSNESSEDLSRANENYVKRVMSGFLVVSKPKSRDVEDRHHRRYRNQNEEPEWFSCGPTSRLDTIELCGFDEDEEKMLKEGNKNHGLGETERETSKQKMDHKYKWTHAEPMGRSKYMPKHDTNNNHNVENMNNVMATEHQQQKEEKRPGSGRSFQFDKFNQSQQNYESSSYVNHQQPPQTQPQQMQQQSNTNTNNSKFMSFFANEGNSSSSSLNEFFKQAINQGHGNNPEQPKSLGHIGQMPSVDQLEAKWRRNSLNNVGETANKQTDNFQKLIGSLSSAKPQSQAVGYDAISNFIMQQQQYQQQQQKQHLIIQQQQQHTAFLASLQLKAILGRADTQLLLLRLTKGEISKHGLLVQLANPRLTDMDREAITAVLQFTNTQQQQQQHKQQLDMLSSTVIASQLQNLHNLAIVQQTLAARQQPQHNPQTQAPHQLSQEDLQAHANVIMRNAVMKRKIEEQTSKLINGGAKHQAQQQYLNRGQQRQARPDANSNALLHALISGGGNNHASGYPMNGQPQKHHSNLRFGDNQNFQSFESNQPHFATQYKQQYQQSQQQHPHQQPQQLNSLHQNNAGAVNSFNKAQMQAQSAISMLPNSGDEFH
# Legend:
# Experiment in all cases: proximity labelling
# [1] = target: T1, Trbo-Dmn (Dynamitin (Dmn)/p50 tagged with TurboID on its N-terminus) (Drosophila)
# [2] = target: T2, Trbo-BicD (wild-type Bicaudal-D tagged with TurboID on its N-terminus) (Drosophila)
# [3] = target: T2, Trbo-BicD (wild-type Bicaudal-D tagged with TurboID on its N-terminus) (Drosophila); remark: listed apart in the source
# [4] = target: T1, Trbo-Dmn (Dynamitin (Dmn)/p50 tagged with TurboID on its N-terminus) (Drosophila); remark: listed apart in the source
# [5] = target: T3, Trbo-BicD_R688A (Drosophila)
molecule,measurement,setting,value
Dynein heavy chain (Dhc) (from UniProt P37276 1-4639),binding,[1],binds
same,binding,[2],binds
Fmr1 (fragile X messenger ribonucleoprotein 1) (from UniProt Q9NFU0 1-684),binding,[2],binds
Kinesin heavy chain (Khc) (from UniProt P17210 1-975),binding,[2],binds
Rab6 (endogenous) (from UniProt O18334 1-208),binding,[2],no binding
B1,binding,[3],binds
B2,binding,[4],binds
B3,binding,[5],binds
B4,binding,[5],binds
